# Publication PMC12006399, “RNase1-driven ALK-activation is an oncogenic driver and therapeutic target in non-small cell lung cancer” (Signal Transduction and Targeted Therapy, 2025)
# Sequences of proteins named here, by UniProt entry; tags and fusion partners are left off. Residues count along the entry.
# UniProt Q9UM73, residues 19-1620: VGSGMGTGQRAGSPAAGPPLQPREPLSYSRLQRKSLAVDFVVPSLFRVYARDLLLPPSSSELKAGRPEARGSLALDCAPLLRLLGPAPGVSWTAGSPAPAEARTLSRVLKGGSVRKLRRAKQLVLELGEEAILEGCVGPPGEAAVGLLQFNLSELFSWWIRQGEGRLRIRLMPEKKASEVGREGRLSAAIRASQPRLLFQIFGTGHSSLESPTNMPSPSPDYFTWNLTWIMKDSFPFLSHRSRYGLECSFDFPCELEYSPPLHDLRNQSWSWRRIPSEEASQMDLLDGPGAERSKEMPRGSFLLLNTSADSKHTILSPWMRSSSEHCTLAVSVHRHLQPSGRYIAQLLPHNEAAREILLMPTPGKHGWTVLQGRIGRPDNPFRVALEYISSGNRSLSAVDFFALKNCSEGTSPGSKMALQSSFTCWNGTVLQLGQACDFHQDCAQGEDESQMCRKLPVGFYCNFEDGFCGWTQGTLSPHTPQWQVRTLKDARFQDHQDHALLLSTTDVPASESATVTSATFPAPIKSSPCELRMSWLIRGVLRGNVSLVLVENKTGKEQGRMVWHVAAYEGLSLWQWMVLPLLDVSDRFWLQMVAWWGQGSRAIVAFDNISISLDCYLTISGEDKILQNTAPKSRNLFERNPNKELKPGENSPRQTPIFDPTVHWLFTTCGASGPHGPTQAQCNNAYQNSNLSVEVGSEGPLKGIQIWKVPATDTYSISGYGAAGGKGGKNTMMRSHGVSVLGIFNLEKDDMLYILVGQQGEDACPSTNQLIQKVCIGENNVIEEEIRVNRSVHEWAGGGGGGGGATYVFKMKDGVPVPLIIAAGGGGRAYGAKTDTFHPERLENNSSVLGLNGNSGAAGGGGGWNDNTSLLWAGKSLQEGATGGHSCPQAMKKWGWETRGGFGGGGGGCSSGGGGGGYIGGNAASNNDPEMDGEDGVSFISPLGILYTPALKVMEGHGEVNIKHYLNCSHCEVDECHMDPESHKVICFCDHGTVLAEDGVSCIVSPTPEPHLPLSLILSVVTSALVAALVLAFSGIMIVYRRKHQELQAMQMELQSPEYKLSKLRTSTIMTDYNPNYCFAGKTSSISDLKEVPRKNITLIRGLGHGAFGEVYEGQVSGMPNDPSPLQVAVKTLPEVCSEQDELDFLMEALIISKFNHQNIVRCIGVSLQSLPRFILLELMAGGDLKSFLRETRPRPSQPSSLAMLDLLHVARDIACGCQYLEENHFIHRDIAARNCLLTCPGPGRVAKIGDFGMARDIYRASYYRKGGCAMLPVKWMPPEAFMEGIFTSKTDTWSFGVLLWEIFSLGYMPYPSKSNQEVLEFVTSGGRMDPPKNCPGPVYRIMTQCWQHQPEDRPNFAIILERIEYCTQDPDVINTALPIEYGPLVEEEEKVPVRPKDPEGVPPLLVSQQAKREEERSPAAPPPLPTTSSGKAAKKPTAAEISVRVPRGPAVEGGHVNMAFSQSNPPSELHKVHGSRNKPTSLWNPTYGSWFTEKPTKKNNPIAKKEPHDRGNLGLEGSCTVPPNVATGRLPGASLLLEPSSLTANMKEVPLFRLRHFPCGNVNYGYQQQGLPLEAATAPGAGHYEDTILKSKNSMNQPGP
# These are yes or no findings as the source states them, for the method shown. In cells and extracts the contact can be indirect. Some results given as binding are weak or reduced against the parent protein; the word gives no strength. For some of these results: Sequences can lack the tags named with a protein.
# T1: recombinantly purified 6x N-terminal His-tagged RNase1 (human) (UniProt P07998)
# T1 sequence: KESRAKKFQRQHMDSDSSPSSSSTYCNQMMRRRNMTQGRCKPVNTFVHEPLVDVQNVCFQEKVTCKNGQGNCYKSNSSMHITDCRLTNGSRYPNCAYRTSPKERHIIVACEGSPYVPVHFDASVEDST
# Tests used:
# [1] = target: T1, recombinantly purified 6x N-terminal His-tagged RNase1 (human); test: pull-down; 10 µg of each purified N-terminal His-tagged RNase incubated with H1299 lysate, Ni-His beads pull down, Western blot; only the target purified
# Myc-tagged ALK = Myc-tagged ALK (UniProt Q9UM73); test: co-IP; HeLa cells transfected with Myc-tagged ALK and C-terminal Flag-tagged RNase1; lysates; RNase1 detected with the Flag antibody
# [2] = target: endogenous wild-type ALK in H1299 human lung cancer cells (human (endogenous in H1299)) (UniProt Q9UM73); test: proximity ligation; Duolink In Situ Red kit on fixed H1299 cells with or without RNase1 expression; ALK and RNase1 antibodies
# [3] = target: ALK in the co-IP of Fig. 1i (UniProt Q9UM73); test: co-IP; HEK293T cells transfected with wild-type or catalytic-deficient RNase1 plasmid; Western blotting
molecule,measurement,setting,value
endogenous wild-type ALK in H1299 human lung cancer cells (from UniProt Q9UM73 19-1620) (receptor),binding,[1],binds
"C-terminal Flag-tagged RNase1 (ligand, UniProt P07998 29-156) KESRAKKFQRQHMDSDSSPSSSSTYCNQMMRRRNMTQGRCKPVNTFVHEPLVDVQNVCFQEKVTCKNGQGNCYKSNSSMHITDCRLTNGSRYPNCAYRTSPKERHIIVACEGSPYVPVHFDASVEDST",binding,Myc-tagged ALK,binds
"RNase1 expressed in H1299 cells (ligand, UniProt P07998 29-156) KESRAKKFQRQHMDSDSSPSSSSTYCNQMMRRRNMTQGRCKPVNTFVHEPLVDVQNVCFQEKVTCKNGQGNCYKSNSSMHITDCRLTNGSRYPNCAYRTSPKERHIIVACEGSPYVPVHFDASVEDST",binding,[2],binds
"wild-type (WT) RNase1 expressed from a plasmid (Fig. 1i) (ligand, UniProt P07998 29-156) KESRAKKFQRQHMDSDSSPSSSSTYCNQMMRRRNMTQGRCKPVNTFVHEPLVDVQNVCFQEKVTCKNGQGNCYKSNSSMHITDCRLTNGSRYPNCAYRTSPKERHIIVACEGSPYVPVHFDASVEDST",binding,[3],binds
